Results are given in words; binding and its absence hold for the method and conditions named. Binding seen in cells or lysates may run through a third protein. Some results given as binding are weak or reduced against the parent protein; the word gives no strength.
Legend:
[1] = target: Endogenous PROX1 in Huh7 cells (human (endogenous in Huh7)) (UniProt Q92786); assay: co-IP; endogenous PROX1 in Huh7 cells treated with MG132 (4uM) immunoprecipitated with anti-PROX1 antibody or isotype IgG control, immunoblot
[2] = target: GST-AMPKα2 (UniProt P54646); assay: pull-down; GST-AMPKα2 incubated with FLAG-PROX1 (whole, S79 variants or fragments) produced in HEK293T cells; only the target purified
[3] = target: FLAG-PROX1, wild type, expressed in HEK293T (UniProt Q92786); assay: co-IP; HEK293T cells cotransfected with PROX1 (whole or FLAG-PROX1 fragments) and CUL proteins or DDB1
[4] = target: GST-AMPKα2 (UniProt P54646); assay: pull-down; GST or GST-AMPKα2 from E. coli incubated with in vitro translated full-length PROX1; PROX1 detected by anti-PROX1 antibody; only the target purified
[5] = target: FLAG-PROX1 expressed in HepG2 (UniProt Q92786); assay: co-IP; HepG2 cells transfected with FLAG-PROX1, deprived of glucose for 8 h in the presence of MG132
[6] = target: GST-PROX1 N-terminal fragment P1 (residues 1-337), wild type (UniProt Q92786); assay: pull-down; purified recombinant GST-PROX1 (P1-WT, S79A and S79E) incubated with DDB1 individually; source of DDB1 not told
[7] = target: GST-PROX1 P1 (1-337) S79A (UniProt Q92786); assay: as above
[8] = target: GST-PROX1 P1 S79E (UniProt Q92786); assay: as above

Chains of the proteins cited; added tags and fusions are not shown. Lines headed by an entry give the natural chain unless they say otherwise; changes in a name come on top. A line that says so, or that is headed by a name, gives the form on record, which may keep a tag or linker. Residues count along the entry.
UniProt Q92786: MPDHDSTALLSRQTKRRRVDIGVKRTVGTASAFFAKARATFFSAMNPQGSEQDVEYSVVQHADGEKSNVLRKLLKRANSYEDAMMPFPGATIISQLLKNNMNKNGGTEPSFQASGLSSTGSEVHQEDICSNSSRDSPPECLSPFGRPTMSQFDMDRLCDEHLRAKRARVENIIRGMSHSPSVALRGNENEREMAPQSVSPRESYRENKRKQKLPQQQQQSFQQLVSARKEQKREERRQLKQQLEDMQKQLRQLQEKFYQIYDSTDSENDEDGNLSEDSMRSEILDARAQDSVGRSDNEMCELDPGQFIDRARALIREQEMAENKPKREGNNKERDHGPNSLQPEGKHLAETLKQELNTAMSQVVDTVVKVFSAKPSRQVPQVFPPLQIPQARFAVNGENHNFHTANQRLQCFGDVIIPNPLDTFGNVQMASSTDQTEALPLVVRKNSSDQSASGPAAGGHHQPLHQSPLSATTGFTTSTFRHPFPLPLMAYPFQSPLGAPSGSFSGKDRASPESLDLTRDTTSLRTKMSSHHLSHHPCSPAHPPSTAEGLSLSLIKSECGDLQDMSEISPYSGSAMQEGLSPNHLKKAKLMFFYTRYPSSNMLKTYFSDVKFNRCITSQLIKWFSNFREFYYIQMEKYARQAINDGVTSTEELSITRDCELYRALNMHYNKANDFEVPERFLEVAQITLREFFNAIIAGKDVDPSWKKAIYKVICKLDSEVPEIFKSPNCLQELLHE
GST-PROX1 N-terminal fragment P1 (residues 1-337), wild type: residues 1-337 of Q92786
GST-PROX1 P1 (1-337) S79A (Q92786, form named): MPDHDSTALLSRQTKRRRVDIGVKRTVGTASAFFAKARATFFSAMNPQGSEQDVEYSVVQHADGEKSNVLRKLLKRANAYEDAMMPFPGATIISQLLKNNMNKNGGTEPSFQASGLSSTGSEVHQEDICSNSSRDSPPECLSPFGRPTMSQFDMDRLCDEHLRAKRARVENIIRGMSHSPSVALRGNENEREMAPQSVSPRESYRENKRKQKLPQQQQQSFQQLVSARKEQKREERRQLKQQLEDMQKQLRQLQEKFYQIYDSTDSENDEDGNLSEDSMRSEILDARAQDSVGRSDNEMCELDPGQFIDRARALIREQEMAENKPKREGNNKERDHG
GST-PROX1 P1 S79E (Q92786, form named): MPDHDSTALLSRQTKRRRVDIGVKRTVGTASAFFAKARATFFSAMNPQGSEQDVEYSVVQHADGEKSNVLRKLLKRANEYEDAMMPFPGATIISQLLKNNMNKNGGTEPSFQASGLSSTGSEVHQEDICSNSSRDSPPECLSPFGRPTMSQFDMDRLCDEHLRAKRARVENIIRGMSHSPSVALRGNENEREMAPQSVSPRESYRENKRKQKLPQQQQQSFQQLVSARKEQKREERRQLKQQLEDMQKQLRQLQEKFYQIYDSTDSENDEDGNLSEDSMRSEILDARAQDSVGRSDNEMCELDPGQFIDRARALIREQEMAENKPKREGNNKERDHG
UniProt P54646: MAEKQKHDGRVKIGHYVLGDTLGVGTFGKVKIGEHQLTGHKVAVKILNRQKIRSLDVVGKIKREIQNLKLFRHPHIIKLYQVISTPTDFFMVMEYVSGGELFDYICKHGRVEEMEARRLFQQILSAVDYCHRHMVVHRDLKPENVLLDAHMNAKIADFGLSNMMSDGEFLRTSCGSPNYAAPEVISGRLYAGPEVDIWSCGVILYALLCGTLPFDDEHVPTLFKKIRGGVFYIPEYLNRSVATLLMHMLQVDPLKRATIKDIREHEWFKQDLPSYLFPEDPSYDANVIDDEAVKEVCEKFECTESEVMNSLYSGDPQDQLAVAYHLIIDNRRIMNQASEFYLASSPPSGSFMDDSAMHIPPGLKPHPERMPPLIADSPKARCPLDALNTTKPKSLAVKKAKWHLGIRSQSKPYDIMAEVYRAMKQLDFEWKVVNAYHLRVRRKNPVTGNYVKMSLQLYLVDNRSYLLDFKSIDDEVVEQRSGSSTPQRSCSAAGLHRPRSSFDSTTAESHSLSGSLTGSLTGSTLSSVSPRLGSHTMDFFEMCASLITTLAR
UniProt Q13619: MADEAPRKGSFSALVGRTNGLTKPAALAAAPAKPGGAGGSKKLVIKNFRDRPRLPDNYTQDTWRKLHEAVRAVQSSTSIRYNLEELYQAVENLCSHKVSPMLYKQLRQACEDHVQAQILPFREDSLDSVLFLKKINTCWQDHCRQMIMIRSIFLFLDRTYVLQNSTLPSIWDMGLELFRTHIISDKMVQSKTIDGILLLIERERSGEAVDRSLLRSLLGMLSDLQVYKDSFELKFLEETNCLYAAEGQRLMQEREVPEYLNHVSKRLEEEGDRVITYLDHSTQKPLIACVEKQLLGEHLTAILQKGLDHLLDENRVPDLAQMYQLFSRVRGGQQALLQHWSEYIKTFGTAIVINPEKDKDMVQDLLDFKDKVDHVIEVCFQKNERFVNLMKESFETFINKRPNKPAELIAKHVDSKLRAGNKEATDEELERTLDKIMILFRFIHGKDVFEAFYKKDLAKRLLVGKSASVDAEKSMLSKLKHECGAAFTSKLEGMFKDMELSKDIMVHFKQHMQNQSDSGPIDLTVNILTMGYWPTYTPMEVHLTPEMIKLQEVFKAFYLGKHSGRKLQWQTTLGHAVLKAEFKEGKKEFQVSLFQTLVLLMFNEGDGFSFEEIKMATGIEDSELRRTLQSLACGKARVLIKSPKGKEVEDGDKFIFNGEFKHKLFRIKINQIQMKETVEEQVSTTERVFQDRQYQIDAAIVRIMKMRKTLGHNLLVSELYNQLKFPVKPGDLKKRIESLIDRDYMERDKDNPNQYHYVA
UniProt Q13620: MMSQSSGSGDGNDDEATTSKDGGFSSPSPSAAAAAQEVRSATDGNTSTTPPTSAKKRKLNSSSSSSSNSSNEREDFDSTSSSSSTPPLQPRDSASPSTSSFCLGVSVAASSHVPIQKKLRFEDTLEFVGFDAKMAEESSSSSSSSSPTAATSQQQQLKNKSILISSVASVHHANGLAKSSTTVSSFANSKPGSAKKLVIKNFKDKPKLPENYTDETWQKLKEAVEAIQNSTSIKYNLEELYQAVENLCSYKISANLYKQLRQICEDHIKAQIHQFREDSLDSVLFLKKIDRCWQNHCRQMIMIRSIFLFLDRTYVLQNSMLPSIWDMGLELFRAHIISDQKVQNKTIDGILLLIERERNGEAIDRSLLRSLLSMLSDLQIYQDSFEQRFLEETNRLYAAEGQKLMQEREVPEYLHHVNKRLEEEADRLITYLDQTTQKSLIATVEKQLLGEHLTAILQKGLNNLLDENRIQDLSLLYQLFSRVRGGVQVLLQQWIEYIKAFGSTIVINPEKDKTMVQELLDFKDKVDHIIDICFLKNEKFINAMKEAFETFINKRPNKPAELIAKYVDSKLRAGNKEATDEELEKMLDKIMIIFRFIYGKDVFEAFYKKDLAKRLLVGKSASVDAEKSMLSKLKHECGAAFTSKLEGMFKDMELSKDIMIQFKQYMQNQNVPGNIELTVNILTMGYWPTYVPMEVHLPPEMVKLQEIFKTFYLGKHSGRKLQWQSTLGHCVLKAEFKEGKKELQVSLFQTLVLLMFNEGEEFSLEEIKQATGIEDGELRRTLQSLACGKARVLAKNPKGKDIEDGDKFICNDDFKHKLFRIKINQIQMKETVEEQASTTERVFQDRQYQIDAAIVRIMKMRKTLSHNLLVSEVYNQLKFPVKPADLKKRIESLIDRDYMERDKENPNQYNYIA
UniProt Q93034: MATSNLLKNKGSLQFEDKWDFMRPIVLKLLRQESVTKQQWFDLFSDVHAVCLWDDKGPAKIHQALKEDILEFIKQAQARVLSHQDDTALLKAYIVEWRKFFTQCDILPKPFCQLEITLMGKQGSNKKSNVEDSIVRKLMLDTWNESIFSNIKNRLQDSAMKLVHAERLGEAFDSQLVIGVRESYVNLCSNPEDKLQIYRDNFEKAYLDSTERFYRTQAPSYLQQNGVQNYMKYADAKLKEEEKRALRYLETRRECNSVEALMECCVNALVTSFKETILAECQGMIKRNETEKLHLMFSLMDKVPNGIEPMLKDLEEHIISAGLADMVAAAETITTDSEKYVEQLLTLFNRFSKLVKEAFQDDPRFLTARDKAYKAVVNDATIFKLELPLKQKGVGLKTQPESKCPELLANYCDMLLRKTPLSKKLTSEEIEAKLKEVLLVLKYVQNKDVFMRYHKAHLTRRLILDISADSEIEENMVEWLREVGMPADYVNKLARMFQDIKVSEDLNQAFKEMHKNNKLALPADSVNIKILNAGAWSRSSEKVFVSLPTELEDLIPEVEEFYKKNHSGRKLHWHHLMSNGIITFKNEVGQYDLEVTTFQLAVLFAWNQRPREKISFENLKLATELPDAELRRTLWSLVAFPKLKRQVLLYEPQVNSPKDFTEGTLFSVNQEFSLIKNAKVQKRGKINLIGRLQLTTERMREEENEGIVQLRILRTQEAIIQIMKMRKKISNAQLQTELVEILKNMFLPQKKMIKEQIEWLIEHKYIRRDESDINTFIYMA
UniProt Q16531: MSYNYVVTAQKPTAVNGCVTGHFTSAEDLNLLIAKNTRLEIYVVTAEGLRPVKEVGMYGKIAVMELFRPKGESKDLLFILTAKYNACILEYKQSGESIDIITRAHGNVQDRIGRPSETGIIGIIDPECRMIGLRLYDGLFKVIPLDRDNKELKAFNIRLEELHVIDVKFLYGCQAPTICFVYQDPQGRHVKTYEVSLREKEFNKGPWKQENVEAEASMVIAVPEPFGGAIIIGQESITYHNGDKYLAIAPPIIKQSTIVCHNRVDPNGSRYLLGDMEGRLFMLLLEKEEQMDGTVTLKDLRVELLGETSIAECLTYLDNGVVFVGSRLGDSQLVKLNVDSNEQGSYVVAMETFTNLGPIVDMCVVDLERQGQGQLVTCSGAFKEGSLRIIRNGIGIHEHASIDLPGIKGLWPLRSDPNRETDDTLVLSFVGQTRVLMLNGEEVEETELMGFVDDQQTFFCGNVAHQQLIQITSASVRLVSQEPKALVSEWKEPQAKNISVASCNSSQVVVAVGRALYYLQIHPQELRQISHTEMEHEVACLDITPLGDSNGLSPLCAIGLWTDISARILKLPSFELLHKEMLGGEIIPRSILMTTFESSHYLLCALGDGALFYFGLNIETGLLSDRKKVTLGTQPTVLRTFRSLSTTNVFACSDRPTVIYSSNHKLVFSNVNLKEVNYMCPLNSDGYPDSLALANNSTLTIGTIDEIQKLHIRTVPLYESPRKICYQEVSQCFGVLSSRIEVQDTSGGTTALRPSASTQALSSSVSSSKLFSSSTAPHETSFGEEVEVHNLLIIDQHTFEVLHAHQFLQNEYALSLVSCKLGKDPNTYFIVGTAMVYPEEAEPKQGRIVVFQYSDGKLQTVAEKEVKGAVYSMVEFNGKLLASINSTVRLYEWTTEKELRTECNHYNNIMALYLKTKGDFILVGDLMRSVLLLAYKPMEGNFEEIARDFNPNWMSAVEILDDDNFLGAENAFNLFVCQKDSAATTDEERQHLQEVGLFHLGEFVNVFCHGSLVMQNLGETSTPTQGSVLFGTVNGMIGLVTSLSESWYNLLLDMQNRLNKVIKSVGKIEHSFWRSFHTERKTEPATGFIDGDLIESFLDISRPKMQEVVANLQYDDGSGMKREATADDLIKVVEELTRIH

CUL4A in Huh7 cells (from UniProt Q13619 1-759)
binding [1]: binds

CUL4B in Huh7 cells (from UniProt Q13620 1-913)
binding [1]: binds

CUL5 in Huh7 cells (from UniProt Q93034 1-780)
binding [1]: no binding

DDB1 in Huh7 cells (from UniProt Q16531 1-1140)
binding [1]: binds

FLAG-PROX1 S79E, expressed in HEK293T (from UniProt Q92786 1-737)
binding [2]: binds

HA-CUL4A (from UniProt Q13619 1-759)
binding [3]: binds

Prospero-related homeobox 1 (PROX1), full length, in vitro translated (from UniProt Q92786 1-737)
binding [4]: binds

HA-CUL4B (from UniProt Q13620 1-913)
binding [3]: binds

DDB1 in HepG2 cells (from UniProt Q16531 1-1140)
binding [5]: binds

DDB1 incubated with GST-PROX1 (Fig. 3f) (from UniProt Q16531 1-1140)
binding [6]: binds
binding [7]: binds
binding [8]: binds

FLAG-PROX1, wild type, expressed in HEK293T (from UniProt Q92786 1-737)
binding [2]: binds

CUL4A in HepG2 cells (from UniProt Q13619 1-759)
binding [5]: binds

CUL4B in HepG2 cells (from UniProt Q13620 1-913)
binding [5]: binds

FLAG-PROX1 S79A, expressed in HEK293T (from UniProt Q92786 1-737)
binding [2]: binds

From article PMC9700865
